The values that follow come from paper PMC8033486 (Frontiers in Pharmacology, 2021).

The assay deals with SARS-CoV-2. It counts as cell-based.

Read-outs that look alike come from different tables or passages of the source.

For `C[C@@H]1CCN(C(=O)CC#N)C[C@@H]1N(C)c1ncnc2[nH]ccc12` [Tofacitinib], the “IC50 (Mean +/- SD)” value (Vero E6, cytopathic effect 3 days after infection, repeated experiments) is on record as “Not Active”.

On to `COc1cc2c(c(OC)c1OC)-c1ccc(OC)c(=O)cc1[C@@H](NC(C)=O)CC2` [Colchicine], for which the “IC50 (Mean +/- SD)” value is given as “Not Active”.
